Source: publication doi:10.1101/2024.04.03.24305074
These are yes or no findings as the source states them, for the method shown. Binding seen in cells or lysates may run through a third protein. A result given as binding can be weak or reduced; the word gives no strength.

Protein sequences, listed by entry. Tags and fused reporters are not part of them. Lines headed by an entry give the natural chain unless they say otherwise; changes in a name come on top.
UniProt P28070: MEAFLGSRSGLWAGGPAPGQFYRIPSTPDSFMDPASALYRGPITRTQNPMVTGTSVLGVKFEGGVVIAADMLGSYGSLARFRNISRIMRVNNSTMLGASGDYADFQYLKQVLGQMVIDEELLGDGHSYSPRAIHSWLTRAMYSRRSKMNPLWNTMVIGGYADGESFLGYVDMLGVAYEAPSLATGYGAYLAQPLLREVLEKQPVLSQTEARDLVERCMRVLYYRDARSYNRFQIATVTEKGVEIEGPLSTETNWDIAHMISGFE

B1: immunoproteasome catalytic subunit β1i (protein, UniProt P28065 21-219)
chain: TTIMAVEFDGGVVMGSDSRVSAGEAVVNRVFDKLSPLHERIYCALSGSAADAQAVADMAAYQLELHGIELEEPPLVLAAANVVRNISYKYREDLSAHLMVAGWDQREGGQVYGTLGGMLTRQPFAIGGSGSTFIYGYVDAAYKPGMSPEECRRFTTDAIALAMSRDGSSGGVIYLVTITAAGVDHRVILGNELPKFYDE
B2: immunoproteasome catalytic subunit β2i (protein, UniProt P40306 40-273)
chain: TTIAGLVFQDGVILGADTRATNDSVVADKSCEKIHFIAPKIYCCGAGVAADAEMTTRMVASKMELHALSTGREPRVATVTRILRQTLFRYQGHVGASLIVGGVDLTGPQLYGVHPHGSYSRLPFTALGSGQDAALAVLEDRFQPNMTLEAAQGLLVEAVTAGILGDLGSGGNVDACVITKTGAKLLRTLSSPTEPVKRSGRYHFVPGTTAVLTQTVKPLTLELVEETVQAMEVE
B3: immunoproteasome catalytic subunit β5i (protein, UniProt P28062 73-276)
chain: TTTLAFKFQHGVIAAVDSRASAGSYISALRVNKVIEINPYLLGTMSGCAADCQYWERLLAKECRLYYLRNGERISVSAASKLLSNMMCQYRGMGLSMGSMICGWDKKGPGLYYVDEHGTRLSGNMFSTGSGNTYAYGVMDSGYRPNLSPEEAYDLGRRAIAYATHRDSYSGGVVNMYHMKEDGWVKVESTDVSDLLHQYREANQ

Target: HTBH-tagged proteasome subunit β7 (PSMB4) (human) (UniProt P28070)
Test: pull-down

Binder	binding
B1	binds
B2	binds
B3	binds
